For at least one compound, name, drawing or mass did not settle the structure.
How the values were obtained:
p70S6 kinase (T389) [1] = assay: Western blot of p70S6 kinase phosphorylation in C. jejuni infected splenocytes; format: cell-based, mice; details: rapamycin 100 nmol/L
C. jejuni [2] = assay: C. jejuni induced colitis, histological intestinal inflammation score; format: in vivo, mice
From the text: All animal protocols were approved by the Institutional Animal Care and Use Committee of the University of North Carolina at Chapel Hill (Chapel Hill, N.C., United States of America). Germ-free 8 to 12 week old II10^−/−; NF-κBEGFP (129/SvEv; C57BL/6 mixed background) mice were transferred from germ-free isolators and immediately gavaged with 10^9 C. jejuni cfu/mouse (strain 81-176 (Korlath et al., 1985)). Mice were then housed under Specific Pathogen-Free (SPF) conditions and sacrificed at 5 or 12 days. Germ-free II10^−/−; NF-κB^EGFP mice were also gavaged with 10^7 Salmonella typhimurium (S. typhimurium strain CA32) cfu/mouse for 2 days or 10^7 Escherichia coli (E. coli strain NC 101) cfu/mouse for 12 days. Conventionally-derived II10^−/−; NF-κB^EGFP mice were put on an antibiotic cocktail (streptomycin 2 g/L, gentamycin 0.5 g/L, bacteriocin 1 g/L and ciprofloxacin 0.125 g/L) in water for 7 days and antibiotics withdrawn 24 hours prior to infection. The mice were then gavaged with 10^9 C. jejuni cfu/mouse for 14 days. To inhibit mTOR signaling, mice were injected daily intraperitoneally (i.p.) with rapamycin (1.5 mg/kg) (Fisher Scientific, Hampton, N.H., United States of America). At the end of the experiment, mice were euthanized using CO2 intoxication. Colon, mesenteric lymph nodes (MLN) and spleen were collected for further processing RNA, protein or C. jejuni culture on Campylobacter selective blood plates (Remel, Thermo Scientific, Hampton, N.H., United States of America) for 48 h at 37° C. using the GasPak system (Becton Dickinson, Franklin Lakes, N.J., United States of America). […] Colons were fixed in 10% buffered formalin (Fisher Scientific, Hampton, N.H., United States of America) overnight, paraffin-embedded, sectioned, and stained with H&E for histological evaluation. Images were acquired using a DP71 camera and DP Controller 3.1.1.276 (Olympus, Center Valley, Pa., United States of America). Intestinal inflammation was scored by evaluating the degree of lamina propria immune cell infiltration, goblet cell depletion, architectural distortion, as well as crypt hyperplasia, ulceration, and abscesses using a score from 0-4. (Lippert et al., 2009). Cecal and colonic inflammation induced by S. typhimurium was evaluated using a score from 0-13 as described. (Hapfelmeier et al., 2005).
All animal protocols were approved by the Institutional Animal Care and Use Committee of the University of North Carolina at Chapel Hill (Chapel Hill, N.C., United States of America). Germ-free 8-12 week-old II10^−/−; NF-κBEGFP (129/SvEv; C57BL/6 mixed background), II10^−/− and II10^−/−; Rag2^−/− mice (129/SvEv) were transferred from germ-free isolators and immediately gavaged with a single dose of 10^9 C. jejuni cfu/mouse (strain 81-176 (Korlath et al., 1985)) and sacrificed after up to 14 days as described previously (Sun et al., 2012). Specific pathogen free (SPF) housed Wt, II10^−/− and Pi3kγ^−/− (Sasaki et al., 2000) mice all on a 129/SvEv background were gavaged 10^9 C. jejuni cfu/mouse one day after 7 day treatment with antibiotics cocktail (streptomycin 2 g/L, gentamycin 0.5 g/L, bacteriocin 1 g/L and ciprofloxacin 0.125 g/L) (Sun et al., 2012). […] Histological images were acquired using a DP71 camera and DP Controller 3.1.1.276 (Olympus, Center Valley, Pa., United States of America), and intestinal inflammation was scored on a scale of 0 to 4 as described before (Lippert et al., 2009; Sun et al., 2012). […]

Salmonella typhimurium = assay: S. typhimurium induced cecal and colonic inflammation, histological score; format: in vivo; details: germ free II10−/−; NF-κBEGFP mice, 10^7 CFU/mouse, 2 days, rapamycin exposure
C. jejuni [3] = assay: Transmission electron microscopy of colon; format: in vivo; details: rapamycin-treated mice
NF-κB = assay: NF-κB-driven EGFP expression in colon (macroimaging, Western blot, confocal); format: in vivo, mice
Experimental: (§1) Whole tissues were lysed in Laemmli buffer and 20 μg of protein was separated by SDS-PAGE, transferred to nitrocellulose membranes and protein detected using enhanced chemiluminescence reaction (ECL) as described previously. (Lippert et al., 2009). Primary antibodies used were phospho-p70S6K (T389) and p70S6K (Cell Signaling, Danvers, Mass., United States of America), EGFP (Sigma, St. Louis, Mo., United States of America), LC3 I/II (MBL) and Actin.
II10^−/−; NF-κB^EGFP mice were sacrificed; the colon was dissected and immediately imaged using a charge-coupled device camera in a light-tight imaging box with a dual-filtered light source and emission filters specific for EGFP (LT-99D2 Illumatools; Lightools Research, Encinitas, Calif., United States of America). For microimaging, colonic segments were cut open and fixed in 4% paraformaldehyde overnight at 4° C., and then permeabilized in 2% triton overnight at 4° C. The tissues were then immersed in FocusClear (CelExplorer labs) and then stained with DAPI. The tissues were put on slides with lumen side facing the lens. NF-κB derived EGPF were examined using OLYMPUS® FV1000 confocal multiphoton upright microscope system with OLYMPUS® Fluoview 2.0 software (Olympus, Center Valley, Pa., United States of America). Acquired images were reconstructed into 3-D using Imaris (Bitplane Inc., South Windsor, Conn., United States of America).
(§2) A segment of the distal colon was lysed in 300 μl Laemmli buffer, homogenized and heated at 95° C. for 5 min. 20 μg of total protein were separated by SDS-PAGE and transferred to nitrocellulose membranes. Targeted protein was detected using enhanced chemiluminescence reaction (ECL) as described previously (Muhlbauer et al., 2008). Primary antibodies used were phosphor-AKT (S473), phosphor-p70S6K (T389), total AKT (all from Cell Signaling, Danvers, Mass., United States of America) and EGFP (Sigma, St. Louis, Mo., United States of America). The density of Western blot bands was quantified using ImageJ and data were normalized to total AKT control.
Following infection and various treatment, II10^−/−; NF-κBEGFP mice were sacrificed, and the colon and cecum were removed and immediately imaged using a charge-coupled device camera in a light-tight imaging box with a dual-filtered light source and emission filters specific for EGFP (LT-99D2 Illumatools; Lightools Research, Encinitas, Calif., United States of America).

LC3 I/II = assay: Western blot of LC3 II conversion in C. jejuni infected splenocytes; format: cell-based, mice; details: rapamycin 100 nmol/L
p70S6 kinase (T389) [4] = assay: Western blot of colonic p70S6K phosphorylation in C. jejuni infected mice; format: in vivo; details: colon, rapamycin 1.5 mg/kg i.p. daily, 12 days
Experimental: as §1, §2

AKT (S473) = assay: Western blot of AKT phosphorylation in colonic lysates of C. jejuni infected mice; format: in vivo; details: wortmannin 1.4 mg/kg i.p. daily, 12 days
Experimental: as §2

C. jejuni [5] = assay: Colonic crypt abscess count in C. jejuni infected mice; format: in vivo; details: wortmannin 1.4 mg/kg i.p. daily, 12 days, vs vehicle
From the text: All animal protocols were approved by the Institutional Animal Care and Use Committee of the University of North Carolina at Chapel Hill (Chapel Hill, N.C., United States of America). Germ-free 8-12 week-old II10^−/−; NF-κBEGFP (129/SvEv; C57BL/6 mixed background), II10^−/− and II10^−/−; Rag2^−/− mice (129/SvEv) were transferred from germ-free isolators and immediately gavaged with a single dose of 10^9 C. jejuni cfu/mouse (strain 81-176 (Korlath et al., 1985)) and sacrificed after up to 14 days as described previously (Sun et al., 2012). Specific pathogen free (SPF) housed Wt, II10^−/− and Pi3kγ^−/− (Sasaki et al., 2000) mice all on a 129/SvEv background were gavaged 10^9 C. jejuni cfu/mouse one day after 7 day treatment with antibiotics cocktail (streptomycin 2 g/L, gentamycin 0.5 g/L, bacteriocin 1 g/L and ciprofloxacin 0.125 g/L) (Sun et al., 2012). […] Histological images were acquired using a DP71 camera and DP Controller 3.1.1.276 (Olympus, Center Valley, Pa., United States of America), and intestinal inflammation was scored on a scale of 0 to 4 as described before (Lippert et al., 2009; Sun et al., 2012). Neutrophils in colonic tissues were identified based on morphological features using H&E stained sections and counted in 5 fields of view/mouse using a microscope. Data were expressed as average counts/mouse.

Structure (SMILES)	C. jejuni induced phosphorylation of p70S6 kinase (T389) in splenocytes (p70S6 kinase (T389) [1])	C. jejuni induced intestinal inflammation (C. jejuni [2]; conventionally-derived, antibiotic-treated II10−/−, NF-κBEGFP mice, rapamycin exposure)	C. jejuni-induced intestinal inflammation (C. jejuni [2]; germ-free II10−/−, NF-κBEGFP mice, rapamycin 1.5 mg/kg i.p. daily from infection, 12 days)	C. jejuni induced bloody diarrhea (C. jejuni [2]; rapamycin daily to mice already infected 4 days, 12 days)	established C. jejuni induced intestinal inflammation (C. jejuni [2]; rapamycin daily to mice already infected 4 days, tissues collected at 12 days)	S. typhimurium induced cecal and colonic inflammation (Salmonella typhimurium)	intracellular C. jejuni in epithelial cells (TEM) (C. jejuni [3])	microvilli of epithelial cells (TEM) (C. jejuni [3])	neutrophil accumulation in colonic crypt with microvilli/glycocalyx destruction (TEM) (C. jejuni [3])	EGFP expression, western blot of colonic lysates (NF-κB; rapamycin-treated, C. jejuni-infected mice)	colonic EGFP tissue expression, confocal microscopy with 3-D reconstruction (NF-κB; rapamycin-treated, C. jejuni-infected mice vs untreated)	colonic EGFP expression, CCD camera macroimaging (NF-κB; rapamycin-treated, C. jejuni-infected mice vs untreated infected)	LC3 II conversion in splenocytes (LC3 I/II)	C. jejuni induced phosphorylation of p70S6 kinase (T389) (p70S6 kinase (T389) [4])	C. jejuni-induced Akt phosphorylation (S473) in colonic lysates (AKT (S473))	C. jejuni-induced crypt abscesses (C. jejuni [5])	C. jejuni-induced colitis (C. jejuni [2]; wortmannin 1.4 mg/kg i.p. daily, 12 days, vs vehicle)	C. jejuni induced colonic EGFP expression (NF-κB; wortmannin-treated vs vehicle-treated mice)
CO[C@H]1C[C@@H]2CC[C@@H](C)[C@@](O)(O2)C(=O)C(=O)N2CCCC[C@H]2C(=O)O[C@H]([C@H](C)C[C@@H]2CC[C@@H](O)[C@H](OC)C2)CC(=O)[C@H](C)/C=C(\C)[C@@H](O)[C@@H](OC)C(=O)[C@H](C)C[C@H](C)/C=C/C=C/C=C/1C [rapamycin]	attenuated	attenuated	blocked	strongly reversed	strongly reversed	strongly attenuated	virtually absent	intact	not observed	reduced EGFP expression	strongly reduced	reduced EGFP expression	enhanced	attenuated				
COC[C@H]1OC(=O)c2coc3c2[C@@]1(C)C1=C(C3=O)[C@@H]2CCC(=O)[C@@]2(C)C[C@H]1OC(C)=O [wortmannin]															reduction	reduced	reduced	attenuated

Source: patent publication US20130225629A1, “TARGETING PI3K/MTOR SIGNALLING AND NEUTROPHIL RECRUITMENT FOR TREATMENT OF ENTERITIS” (THE UNIVERSITY OF NORTH CAROLINA AT CHAPEL HILL, priority 2012, published 2013)
